Assay results: PMC3925316
These are yes or no findings as the source states them, for the method shown. Binding seen in cells or lysates may run through a third protein. Some results given as binding are weak or reduced against the parent protein; the word gives no strength.

Sequences of proteins named here, by UniProt entry; tags and fusion partners are left off. A change or cut given only in a name is not applied to a line headed by its entry. A line that says so, or that is headed by a name, gives the form on record, which may keep a tag or linker. Residues count along the entry.
LOXL2-Flag (Q9Y4K0, residues 26-774): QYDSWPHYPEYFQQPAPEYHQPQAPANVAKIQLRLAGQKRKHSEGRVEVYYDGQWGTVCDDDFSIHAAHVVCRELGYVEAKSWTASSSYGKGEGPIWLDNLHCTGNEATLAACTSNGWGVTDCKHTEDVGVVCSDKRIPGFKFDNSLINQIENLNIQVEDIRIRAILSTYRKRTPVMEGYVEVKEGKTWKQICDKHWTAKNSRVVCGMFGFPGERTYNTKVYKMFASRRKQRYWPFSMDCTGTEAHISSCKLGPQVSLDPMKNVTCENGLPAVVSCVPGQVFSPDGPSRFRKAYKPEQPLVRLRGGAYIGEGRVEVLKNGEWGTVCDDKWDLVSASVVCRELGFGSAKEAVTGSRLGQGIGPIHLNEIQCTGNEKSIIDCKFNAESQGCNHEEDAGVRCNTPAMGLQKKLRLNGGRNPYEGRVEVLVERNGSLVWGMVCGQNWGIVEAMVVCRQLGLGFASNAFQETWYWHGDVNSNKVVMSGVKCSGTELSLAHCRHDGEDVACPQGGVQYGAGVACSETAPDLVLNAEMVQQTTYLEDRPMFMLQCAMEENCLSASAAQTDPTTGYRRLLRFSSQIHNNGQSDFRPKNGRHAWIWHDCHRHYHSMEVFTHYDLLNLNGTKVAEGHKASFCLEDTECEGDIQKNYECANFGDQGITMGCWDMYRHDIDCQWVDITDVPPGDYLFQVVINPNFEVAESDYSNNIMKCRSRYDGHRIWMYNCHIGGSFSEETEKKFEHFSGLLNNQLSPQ
LOXL2-H626/628Q-HA (Q9Y4K0, form named): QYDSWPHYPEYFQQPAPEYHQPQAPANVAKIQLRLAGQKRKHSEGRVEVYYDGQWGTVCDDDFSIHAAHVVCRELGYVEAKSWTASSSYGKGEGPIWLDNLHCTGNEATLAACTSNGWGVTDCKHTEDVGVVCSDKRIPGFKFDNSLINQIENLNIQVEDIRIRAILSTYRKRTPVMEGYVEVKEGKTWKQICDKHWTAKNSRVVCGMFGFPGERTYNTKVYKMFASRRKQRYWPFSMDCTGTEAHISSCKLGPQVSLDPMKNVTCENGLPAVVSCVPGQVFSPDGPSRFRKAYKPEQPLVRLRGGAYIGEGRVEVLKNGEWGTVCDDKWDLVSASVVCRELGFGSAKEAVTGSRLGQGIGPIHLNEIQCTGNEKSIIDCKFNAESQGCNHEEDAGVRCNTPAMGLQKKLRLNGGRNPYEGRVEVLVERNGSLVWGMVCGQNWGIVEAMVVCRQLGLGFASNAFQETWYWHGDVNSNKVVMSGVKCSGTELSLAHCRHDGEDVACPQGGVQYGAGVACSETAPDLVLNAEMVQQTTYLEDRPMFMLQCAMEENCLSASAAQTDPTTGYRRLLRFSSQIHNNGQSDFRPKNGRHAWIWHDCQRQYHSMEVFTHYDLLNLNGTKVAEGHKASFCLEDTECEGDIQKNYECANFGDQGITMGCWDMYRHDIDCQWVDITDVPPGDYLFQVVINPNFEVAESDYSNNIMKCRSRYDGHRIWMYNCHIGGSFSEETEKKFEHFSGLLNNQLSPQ
LOXL2-Δ547-667-Flag (P58022, form named): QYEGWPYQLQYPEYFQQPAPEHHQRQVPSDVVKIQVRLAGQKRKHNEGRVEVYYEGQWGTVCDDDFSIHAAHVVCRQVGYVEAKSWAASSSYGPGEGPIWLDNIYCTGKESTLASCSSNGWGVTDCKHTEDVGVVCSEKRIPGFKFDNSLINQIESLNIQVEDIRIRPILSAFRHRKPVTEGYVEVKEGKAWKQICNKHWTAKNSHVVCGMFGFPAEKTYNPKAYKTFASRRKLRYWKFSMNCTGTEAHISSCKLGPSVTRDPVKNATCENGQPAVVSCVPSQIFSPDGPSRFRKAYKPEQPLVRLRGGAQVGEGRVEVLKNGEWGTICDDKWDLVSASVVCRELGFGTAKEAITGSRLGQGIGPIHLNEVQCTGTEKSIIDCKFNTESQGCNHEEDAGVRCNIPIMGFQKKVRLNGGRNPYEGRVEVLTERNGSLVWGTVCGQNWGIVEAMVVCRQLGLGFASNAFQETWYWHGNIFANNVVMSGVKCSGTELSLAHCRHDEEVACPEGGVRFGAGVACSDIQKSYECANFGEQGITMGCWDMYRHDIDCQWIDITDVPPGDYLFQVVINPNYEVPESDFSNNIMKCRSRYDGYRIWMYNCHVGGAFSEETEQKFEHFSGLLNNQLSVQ
UniProt O95863: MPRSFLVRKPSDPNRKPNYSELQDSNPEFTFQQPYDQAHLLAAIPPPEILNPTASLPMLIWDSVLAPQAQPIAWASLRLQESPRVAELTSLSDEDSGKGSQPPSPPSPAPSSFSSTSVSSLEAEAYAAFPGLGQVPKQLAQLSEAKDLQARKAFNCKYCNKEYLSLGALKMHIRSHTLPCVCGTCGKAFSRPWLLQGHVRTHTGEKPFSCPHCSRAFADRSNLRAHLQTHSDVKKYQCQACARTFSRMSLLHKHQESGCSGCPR

What was measured:
Assay in all cases: co-IP; whole cell extracts of HEK293T cells transiently co-transfected with Snail1-HA and a LOXL2 variant; immunoprecipitated with anti-Flag M2 affinity gel (LOXL2, ΔLOXL2) or anti-LOXL2 antibody (H626/628Q); Western blot with anti-LOXL2 or anti-HA
[1] = biological target: LOXL2-Flag (human) (UniProt Q9Y4K0)
[2] = biological target: LOXL2-H626/628Q-HA (human) (UniProt Q9Y4K0)
[3] = biological target: LOXL2-Δ547-667-Flag (mouse) (UniProt P58022)

Measured: binding

Snail1-HA (from UniProt O95863 1-264)
binds: all assays above
